# Data source: PubChem BioAssay AID743121 (NCATS, 2013)
# Assay: 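Genes whose silencing strengthens cell killing by camptothecin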 (primary screen)
# Cell system: MDA-MB-231 cells, a human breast cancer line
# Reagent: single siRNA against human genes, 20 nM siRNA (0.8 pmol per well)
# Duration: 120 h (drug added 48 h after transfection, read 72 h later)
# Conditions: camptothecin 20 nM (about EC30) for 72 h; vehicle 0.1% DMSO in parallel plates
# Detection: 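CellTiter-Glo ATP signal, scaled to control siRNA as percent viability; sensitisation given as log2 of untreated divided by camptothecin-treated viability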
# Scale: log2 vehicle/camptothecin viability: higher = stronger sensitisation to camptothecin; viability with camptothecin: higher = more viable cells
# Rule for the call: 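Active genes have an RSA gene-level p-value below 0.001, computed from the ratios of their separate siRNAs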
# Shown is one part, drawn at random, of about 26,000 reagents tested. 167 of them (0.63%) were called active. 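Calls are per gene from RSA p-values that are not deposited; an individual active-marked siRNA can sensitise only weakly.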 The numbers tell different reagents against one gene apart. Further read-outs or replicates are left out here. No sequences are given here.
gene symbol,reagent no.,log2 vehicle/camptothecin viability,viability with camptothecin (% of control),Call
CCR5,1,-0.2,73.1,inactive
CCR5,2,-0.377,69.7,inactive
CCR5,3,-0.584,84,inactive
CCR5,4,-0.389,119,inactive
CCR5,5,-0.0401,110,inactive
CCR5,6,-0.544,69.2,inactive
CCR5,7,-0.59,73.5,inactive
GULP1,1,-0.0261,40.3,inactive
GULP1,2,0.0899,84.4,inactive
GULP1,3,0.0323,90.6,inactive
GSK3B,1,-0.168,109,inactive
GSK3B,2,-0.337,60.9,inactive
GSK3B,3,0.166,98.9,inactive
GSK3B,4,-0.183,68.3,inactive
STYXL2,1,-0.0581,93.4,inactive
STYXL2,2,-0.148,108,inactive
STYXL2,3,-0.644,71.2,inactive
STYXL2,4,-0.691,27.2,inactive
ARRB1,1,0.0319,86,inactive
ARRB1,2,-0.687,101,inactive
ARRB1,3,0.782,36.9,inactive
ARRB1,4,0.0657,75.8,inactive
ADAM33,1,1.02,17.7,inactive
ADAM33,2,-0.169,94.1,inactive
ADAM33,3,-0.376,64.9,inactive
ADAM33,4,-0.349,76.2,inactive
PNLIPRP2,1,0.0371,81.6,inactive
PNLIPRP2,2,-0.446,62.2,inactive
PNLIPRP2,3,-0.16,28.6,inactive

Sorted by “viability with camptothecin (% of control)” (highest first): 2 of the entries above
gene symbol,reagent no.,log2 vehicle/camptothecin viability,viability with camptothecin (% of control),Call
ARRB1,1,0.0319,86,inactive
STYXL2,4,-0.691,27.2,inactive
